Not every detail of the peptide structures is certain; ends, links or a residue may be inferred. Peptide text beside a SMILES is read from it. * marks the point of attachment. HBEDCC = O=C(O)CCc1ccc(O)c(CN(CCN(CC(=O)O)Cc2cc(CCC(=O)*)ccc2O)CC(=O)O)c1
Experiments:
[1] = test system: BxPC3 human pancreatic xenografts; assay: PET/CT imaging with 68Ga-HBED-CC tracers, BxPC3 xenografts; format: in vivo, mice; settings: BxPC3, 60 min post-injection, p<0.01
[2] = test system: Capan-1 human pancreatic xenografts; assay: PET/CT imaging with 68Ga-HBED-CC tracers, Capan-1 xenografts; format: in vivo, mice; settings: Capan-1, 60 min post-injection, p<0.01

Structure (SMILES): CC(C)[C@H](NC(=O)[C@@H](NC(=O)CCc1ccc(O)c(CN(CCN(CC(=O)O)Cc2cc(CCC(=O)O)ccc2O)CC(=O)O)c1)[C@@H](C)O)C(=O)N[C@@H](CCCNC(=N)N)C(=O)N[C@H](C(=O)N[C@@H](CO)C(=O)N[C@@H](C)C(=O)N[C@@H](CC(=O)O)C(=O)O)[C@@H](C)O [ZD2-(^68Ga-HBED-CC), metal not drawn] ({HBEDCC}-TVRTSAD-OH)
- tumor uptake relative to muscle [1]: approximately 10.2 fold
- tumor uptake relative to muscle [2]: ~7.3 fold
